Results deposited as PubChem BioAssay AID504804 (Drosophila RNAi Screening Center, 2011)
The deposit covers about 19,000 reagents; this is a random part of those that have a named target and a result. Of all reagents, 47 (0.25%) were called active. 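Signals are raw, not normalised; exact z-scores behind calls not deposited; actives needed confirmation, so some wells reaching 2 SD are inactive.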

- Test: 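Fly genes whose loss lessens doxorubicin-driven cell death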 (primary screen)
- System: Drosophila Kc cells
- Reagent: long dsRNA against Drosophila genes, 0.5 µg dsRNA per well
- Time to read-out: 96 h (48 h knock-down, then 48 h drug)
- Treatment: doxorubicin 5 µg/ml for 48 h, added 48 h after dsRNA
- Measured: 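Viability measured as cellular ATP by luminescence after 48 h knock-down then 48 h doxorubicin at 5 µg/ml; unnormalised plate counts for each replicate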
- Direction: raw ATP luminescence: higher = more viable cells, protection from doxorubicin
- Hit rule: 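z-score of 2 or more over plate mean in both duplicates, retained only when retests and separate dsRNAs confirm the protection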

Target gene | DRSC id | raw ATP luminescence, replicate 1 | raw ATP luminescence, replicate 2 | activity call
gzl | DRSC12517 | 51313 | 12687 | inactive
CG2931 | DRSC12324 | 62103 | 69303 | inactive
GluRIIE | DRSC13431 | 1.85e5 | 2.16e5 | inactive
spd-2 | DRSC09682 | 25970 | 22417 | inactive
Kap-alpha3 | DRSC16976 | 67987 | 53550 | inactive
CG17196 | DRSC15189 | 70560 | 70910 | inactive
kcc | DRSC04316 | 68043 | 60980 | inactive
kcc | DRSC04516 | 62230 | 52877 | inactive
ItgaPS5 | DRSC04501 | 73383 | 62420 | inactive
lectin-29Ca | DRSC02635 | 35320 | 73923 | inactive
CG32591 | DRSC19063 | 1.87e5 | 1.82e5 | inactive
Eip93F | DRSC13527 | 2.20e5 | 2.58e5 | inactive
Eip93F | DRSC16661 | 28150 | 38180 | inactive
CG11755 | DRSC14374 | 58147 | 61020 | inactive
CG7560 | DRSC10879 | 56220 | 70053 | inactive
ACXA | DRSC00844 | 81067 | 76107 | inactive
Xrcc2 | DRSC19984 | 2.59e5 | 2.85e5 | inactive
Kr | DRSC04622 | 19407 | 69180 | inactive
btsz | DRSC14982 | 35110 | 30560 | inactive
btsz | DRSC16231 | 74810 | 74070 | inactive
CG34210 | DRSC04579 | 53330 | 50560 | inactive
danr | DRSC14651 | 64610 | 71240 | inactive
blanks | DRSC09757 | 70973 | 62517 | inactive
CG14020 | DRSC02350 | 24433 | 28350 | inactive
noi | DRSC12383 | 27710 | 23643 | inactive
CG13063 | DRSC09946 | 42087 | 36900 | inactive
su(sable) | DRSC18839 | 41860 | 46470 | inactive
htk | DRSC20029 | 2.46e5 | 2.70e5 | inactive
CG14621 | DRSC20635 | 3.51e5 | 3.17e5 | inactive
CG11714 | DRSC09857 | 32507 | 41147 | inactive
pita | DRSC04006 | 97507 | 1.03e5 | inactive
pita | DRSC04435 | 61163 | 51653 | inactive
Hr3 | DRSC06118 | 21620 | 35040 | inactive
Hr3 | DRSC07441 | 65133 | 53837 | inactive
CG15203 | DRSC19650 | 3.21e5 | 3.43e5 | inactive
CG30054 | DRSC05354 | 87780 | 92360 | inactive
Galk | DRSC10500 | 45177 | 36560 | inactive
CG6885 | DRSC10740 | 35860 | 28917 | inactive
CG5359 | DRSC15780 | 26863 | 62443 | inactive
Gr22f | DRSC00076 | 3.21e5 | 3.33e5 | inactive
mRpS6 | DRSC08470 | 59297 | 78850 | inactive
ODA-Dnal1 | DRSC07270 | 65197 | 86297 | inactive
Cyp28d1 | DRSC03298 | 1.26e5 | 78040 | inactive
btd | DRSC18747 | 3.06e5 | 3.25e5 | inactive
shps | DRSC14614 | 68570 | 65720 | inactive
CG4546 | DRSC15593 | 1.05e5 | 88950 | inactive
CG8516 | DRSC16437 | 52660 | 51670 | inactive
CG10713 | DRSC09786 | 73210 | 67267 | inactive
Dok | DRSC18204 | 22190 | 24870 | inactive
CG8813 | DRSC00706 | 1.23e5 | 85147 | inactive
ImpL2 | DRSC08666 | 36063 | 34853 | inactive
fmt | DRSC09717 | 38030 | 37550 | inactive
BEAF-32 | DRSC05927 | 51787 | 49893 | inactive
CG43896 | DRSC10754 | 81883 | 1.63e5 | inactive
spn-E | DRSC17064 | 66990 | 59430 | inactive
Cad99C | DRSC15050 | 68100 | 38010 | inactive
CG12883 | DRSC14570 | 39770 | 34750 | inactive

Quoted from the listing for reference:
Target gene | DRSC id | raw ATP luminescence, replicate 1 | raw ATP luminescence, replicate 2 | activity call
CG32591 | DRSC19063 | 1.87e5 | 1.82e5 | inactive
Eip93F | DRSC13527 | 2.20e5 | 2.58e5 | inactive
Eip93F | DRSC16661 | 28150 | 38180 | inactive
CG11755 | DRSC14374 | 58147 | 61020 | inactive
CG7560 | DRSC10879 | 56220 | 70053 | inactive
ACXA | DRSC00844 | 81067 | 76107 | inactive
